This series deals with GFP-Sp1. Briefly: Immunofluorescence imaging of subcellular localization of GFP-Sp1. To be noted: confocal imaging, HEK 293T cells. The series is classed as cell-based, human.

B1: fl-OGA: Full length OGA with a myc tag (SEQ ID NO: 1) (protein)
chain: MASMQKLISEEDLLMAMEARIRSTVQKESQATLEERESELSSNPAASAGASLEPPAAPAPGEDNPAGAGGAAVAGAAGGARRFLCGVVEGFYGRPWVMEQRKELFRRLQKWELNTYLYAPKDDYKHRMFWREMYSVEEAEQLMTLISAAREYEIEFIYAISPGLDITFSNPKEVSTLKRKLDQVSQFGCRSFALLFDDIDHNMCAADKEVFSSFAHAQVSITNEIYQYLGEPETFLFCPTEYCGTFCYPNVSQSPYLRTVGEKLLPGIEVLWTGPKVVSKEIPVESIEEVSKIIKRAPVIWDNIHANDYDQKRLFLGPYKGRSTELIPRLKGVLTNPNCEFEANYVAIHTLATWYKSNMNGVRKDVVMTDSEDSTVSIQIKLENEGSDEDIETDVLYSPQMALKLALTEWLQEFGVPHQYSSRQVAHSGAKASVVDGTPLVAAPSLNATTVVTTVYQEPIMSQGAALSGEPTTLTKEEEKKQPDEEPMDMVVEKQEETDHKNDNQILSEIVEAKMAEELKPMDTDKESIAESKSPEMSMQEDCISDIAPMQTDEQTNKEQFVPGPNEKPLYTAEPVTLEDLQLLADLFYLPYEHGPKGAQMLREFQWLRANSSVVSVNCKGKDSEKIEEWRSRAAKFEEMCGLVMGMFTRLSNCANRTILYDMYSYVWDIKSIMSMVKSFVQWLGCRSHSSAQFLIGDQEPWAFRGGLAGEFQRLLPIDGANDLFFQPPPLTPTSKVYTIRPYFPKDEASVYKICREMYDDGVGLPFQSQPDLIGDKLVGGLLSLSLDYCFVLEDEDGICGYALGTVDVTPFIKKCKISWIPFMQEKYTKPNGDKELSEAEKIMLSFHEEQEVLPETFLANFPSLIKMDIHKKVTDPSVAKSMMACLLSSLKANGSRGAFCEVRPDDKRILEFYSKLGCFEIAKMEGFPKDVVILGRSL
modifications: myc tag
With B1, the “subcellular localization of target protein GFP-Sp1” value was “does not change nuclear localization of GFP-Sp1”.

The values above are taken from US20240043528A1, “NANOBODY-OGA FUSIONS AND USES THEREOF” (President and Fellows of Harvard College, priority 2020, published 2024).
